Measured values taken from US10155776B2, “Method for selective detection and estimation of histidine and cystein” (Council of Scientific and Industrial Research, priority 2014, dated 2018).

Test: Estimation of Cysteine and Histidine in human blood plasma with reagent R and NEM

| Structure (SMILES) | actual [Histidine] in HBP sample (CHis) (human blood plasma pre-treated with NEM, spiked with 200 and 300 μM His) [LM] | CHis in HBP sample (human blood plasma, mean of [His]1 and [His]2, three independent evaluations) [µM] | actual [Cys] in HBP sample (human blood plasma, difference CT−CHis) [µM] |
| --- | --- | --- | --- |
| N[C@@H](Cc1c[nH]cn1)C(=O)O [Histidine] | 23±2.1 | 23 ± 2.1 |  |
| N[C@@H](CS)C(=O)O [cysteine] |  |  | 239 ± 7.5 |
